Data as given in the supplement of paper PMC10849652.
The other results are listed elsewhere or left out.

By UniProt entry, the sequences of proteins in these tests, tags left out. Where a name states a change or a piece, a line headed by the entry shows the natural chain unless it says otherwise.
UniProt Q9NY33: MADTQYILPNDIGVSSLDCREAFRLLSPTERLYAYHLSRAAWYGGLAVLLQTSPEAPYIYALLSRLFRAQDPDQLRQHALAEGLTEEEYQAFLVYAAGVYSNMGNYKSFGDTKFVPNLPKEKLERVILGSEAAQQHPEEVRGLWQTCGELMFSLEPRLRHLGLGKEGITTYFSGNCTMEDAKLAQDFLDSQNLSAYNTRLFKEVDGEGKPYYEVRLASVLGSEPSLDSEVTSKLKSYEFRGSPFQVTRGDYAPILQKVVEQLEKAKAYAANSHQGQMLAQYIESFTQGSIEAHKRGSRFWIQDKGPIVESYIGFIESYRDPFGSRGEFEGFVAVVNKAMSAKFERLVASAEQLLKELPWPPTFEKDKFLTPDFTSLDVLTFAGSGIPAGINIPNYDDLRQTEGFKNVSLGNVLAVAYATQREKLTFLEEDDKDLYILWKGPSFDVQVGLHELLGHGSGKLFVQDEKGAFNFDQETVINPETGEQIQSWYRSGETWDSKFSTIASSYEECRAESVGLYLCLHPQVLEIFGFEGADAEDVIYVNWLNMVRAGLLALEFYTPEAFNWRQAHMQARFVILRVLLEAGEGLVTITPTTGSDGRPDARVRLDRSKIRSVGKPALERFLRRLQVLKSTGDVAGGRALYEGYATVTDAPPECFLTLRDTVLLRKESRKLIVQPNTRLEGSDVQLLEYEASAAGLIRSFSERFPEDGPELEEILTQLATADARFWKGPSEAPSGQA
UniProt P30084: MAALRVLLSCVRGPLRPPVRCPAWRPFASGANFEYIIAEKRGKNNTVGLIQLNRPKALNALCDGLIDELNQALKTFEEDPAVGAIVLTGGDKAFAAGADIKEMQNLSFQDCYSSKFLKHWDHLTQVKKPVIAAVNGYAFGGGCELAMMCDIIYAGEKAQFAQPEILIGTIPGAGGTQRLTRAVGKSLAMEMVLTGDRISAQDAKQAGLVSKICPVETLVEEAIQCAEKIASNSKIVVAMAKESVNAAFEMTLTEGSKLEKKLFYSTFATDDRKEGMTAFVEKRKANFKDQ
UniProt Q99956: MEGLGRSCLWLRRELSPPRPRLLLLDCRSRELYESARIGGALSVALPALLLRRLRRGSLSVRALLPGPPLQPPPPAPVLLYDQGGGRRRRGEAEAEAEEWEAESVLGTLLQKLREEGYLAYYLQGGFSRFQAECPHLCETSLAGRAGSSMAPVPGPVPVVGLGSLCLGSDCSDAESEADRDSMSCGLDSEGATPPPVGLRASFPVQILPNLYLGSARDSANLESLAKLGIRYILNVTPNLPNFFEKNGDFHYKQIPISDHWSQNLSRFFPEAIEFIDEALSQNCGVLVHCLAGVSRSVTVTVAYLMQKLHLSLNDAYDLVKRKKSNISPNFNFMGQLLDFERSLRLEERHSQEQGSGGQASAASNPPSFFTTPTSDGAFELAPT
UniProt Q16610: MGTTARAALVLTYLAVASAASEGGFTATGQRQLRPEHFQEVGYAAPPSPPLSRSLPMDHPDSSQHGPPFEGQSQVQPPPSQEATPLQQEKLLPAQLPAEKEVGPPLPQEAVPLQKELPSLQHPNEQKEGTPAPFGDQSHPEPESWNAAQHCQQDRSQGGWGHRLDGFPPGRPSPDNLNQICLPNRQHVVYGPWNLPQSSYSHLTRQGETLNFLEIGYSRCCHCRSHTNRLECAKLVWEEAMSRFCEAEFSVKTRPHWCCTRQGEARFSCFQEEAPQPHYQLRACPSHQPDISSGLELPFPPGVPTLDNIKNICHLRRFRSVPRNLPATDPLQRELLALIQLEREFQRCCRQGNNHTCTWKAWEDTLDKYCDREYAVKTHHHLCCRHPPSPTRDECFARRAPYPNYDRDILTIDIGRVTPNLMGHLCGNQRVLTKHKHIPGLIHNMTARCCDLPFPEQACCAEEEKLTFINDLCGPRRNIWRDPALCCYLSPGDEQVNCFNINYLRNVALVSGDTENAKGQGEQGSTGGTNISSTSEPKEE
UniProt Q9BVJ7: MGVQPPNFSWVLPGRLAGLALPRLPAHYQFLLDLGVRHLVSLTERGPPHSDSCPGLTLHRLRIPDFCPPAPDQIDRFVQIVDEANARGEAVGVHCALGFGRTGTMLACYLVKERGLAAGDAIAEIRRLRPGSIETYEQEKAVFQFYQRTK
UniProt O00559: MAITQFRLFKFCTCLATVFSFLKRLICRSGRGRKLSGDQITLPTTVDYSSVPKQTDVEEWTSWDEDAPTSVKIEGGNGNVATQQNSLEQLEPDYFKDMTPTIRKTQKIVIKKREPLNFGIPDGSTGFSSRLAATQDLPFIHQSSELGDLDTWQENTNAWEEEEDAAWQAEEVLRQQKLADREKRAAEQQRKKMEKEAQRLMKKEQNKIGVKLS
UniProt Q96FJ2, whole entry, looked up: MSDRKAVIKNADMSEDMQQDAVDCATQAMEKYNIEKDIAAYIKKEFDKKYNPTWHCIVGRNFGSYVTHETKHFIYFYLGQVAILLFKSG
UniProt Q9H223: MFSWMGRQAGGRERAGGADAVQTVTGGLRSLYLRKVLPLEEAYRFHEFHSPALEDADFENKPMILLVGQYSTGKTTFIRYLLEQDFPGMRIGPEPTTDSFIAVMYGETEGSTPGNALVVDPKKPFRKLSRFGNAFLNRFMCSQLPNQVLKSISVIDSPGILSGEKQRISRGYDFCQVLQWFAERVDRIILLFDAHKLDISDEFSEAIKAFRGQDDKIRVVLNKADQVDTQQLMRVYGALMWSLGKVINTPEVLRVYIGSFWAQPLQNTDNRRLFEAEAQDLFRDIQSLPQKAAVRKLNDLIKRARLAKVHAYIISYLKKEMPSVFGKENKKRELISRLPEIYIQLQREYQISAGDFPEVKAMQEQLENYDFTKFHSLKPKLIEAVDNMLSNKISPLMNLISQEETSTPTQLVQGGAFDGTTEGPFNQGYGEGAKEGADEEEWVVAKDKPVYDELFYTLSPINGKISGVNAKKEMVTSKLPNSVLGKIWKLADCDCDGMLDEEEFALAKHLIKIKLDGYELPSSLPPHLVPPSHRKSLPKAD
UniProt Q9BQ95: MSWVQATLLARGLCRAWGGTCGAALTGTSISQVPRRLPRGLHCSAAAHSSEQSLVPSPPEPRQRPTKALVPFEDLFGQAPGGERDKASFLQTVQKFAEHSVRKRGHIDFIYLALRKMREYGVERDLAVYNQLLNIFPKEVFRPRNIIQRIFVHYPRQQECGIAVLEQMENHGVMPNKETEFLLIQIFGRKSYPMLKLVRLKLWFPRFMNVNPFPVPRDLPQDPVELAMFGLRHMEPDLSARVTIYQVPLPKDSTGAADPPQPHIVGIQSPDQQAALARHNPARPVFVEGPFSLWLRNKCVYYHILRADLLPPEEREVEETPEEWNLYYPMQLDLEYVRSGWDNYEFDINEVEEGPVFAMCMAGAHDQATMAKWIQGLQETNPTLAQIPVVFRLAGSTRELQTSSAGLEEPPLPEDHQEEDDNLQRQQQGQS
UniProt Q9Y295: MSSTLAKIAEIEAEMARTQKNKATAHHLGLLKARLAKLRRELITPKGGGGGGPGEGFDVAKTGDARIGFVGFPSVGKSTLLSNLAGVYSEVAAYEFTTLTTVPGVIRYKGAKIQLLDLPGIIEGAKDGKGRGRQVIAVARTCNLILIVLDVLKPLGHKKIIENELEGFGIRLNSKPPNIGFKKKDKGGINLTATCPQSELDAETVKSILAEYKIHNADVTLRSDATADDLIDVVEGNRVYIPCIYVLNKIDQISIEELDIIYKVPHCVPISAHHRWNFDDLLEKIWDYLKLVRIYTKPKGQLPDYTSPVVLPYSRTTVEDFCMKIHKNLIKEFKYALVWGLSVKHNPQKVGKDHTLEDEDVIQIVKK
UniProt P41567, whole entry, looked up: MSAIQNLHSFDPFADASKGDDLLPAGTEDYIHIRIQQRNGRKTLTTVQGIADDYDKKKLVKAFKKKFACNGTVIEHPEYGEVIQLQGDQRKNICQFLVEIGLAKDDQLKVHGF
UniProt P23919: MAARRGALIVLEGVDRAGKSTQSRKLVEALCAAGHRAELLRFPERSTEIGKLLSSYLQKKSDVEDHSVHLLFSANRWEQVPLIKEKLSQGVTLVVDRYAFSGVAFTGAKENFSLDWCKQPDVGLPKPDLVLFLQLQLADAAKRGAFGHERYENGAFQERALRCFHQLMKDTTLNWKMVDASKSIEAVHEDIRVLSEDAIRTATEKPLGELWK
UniProt O43237, whole entry, looked up: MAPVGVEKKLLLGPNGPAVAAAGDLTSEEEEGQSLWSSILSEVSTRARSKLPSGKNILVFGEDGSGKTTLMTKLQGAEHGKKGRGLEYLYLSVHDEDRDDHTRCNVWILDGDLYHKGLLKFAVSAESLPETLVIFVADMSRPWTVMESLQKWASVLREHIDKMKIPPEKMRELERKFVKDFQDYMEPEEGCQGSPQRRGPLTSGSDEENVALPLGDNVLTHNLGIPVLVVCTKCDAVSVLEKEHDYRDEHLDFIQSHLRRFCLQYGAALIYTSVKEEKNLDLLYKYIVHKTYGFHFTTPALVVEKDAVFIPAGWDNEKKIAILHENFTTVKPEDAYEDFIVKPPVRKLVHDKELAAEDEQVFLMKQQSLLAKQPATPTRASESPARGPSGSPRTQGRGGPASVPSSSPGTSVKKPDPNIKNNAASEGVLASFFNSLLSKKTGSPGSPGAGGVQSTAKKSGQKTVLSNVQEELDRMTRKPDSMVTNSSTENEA
UniProt Q9BTV6: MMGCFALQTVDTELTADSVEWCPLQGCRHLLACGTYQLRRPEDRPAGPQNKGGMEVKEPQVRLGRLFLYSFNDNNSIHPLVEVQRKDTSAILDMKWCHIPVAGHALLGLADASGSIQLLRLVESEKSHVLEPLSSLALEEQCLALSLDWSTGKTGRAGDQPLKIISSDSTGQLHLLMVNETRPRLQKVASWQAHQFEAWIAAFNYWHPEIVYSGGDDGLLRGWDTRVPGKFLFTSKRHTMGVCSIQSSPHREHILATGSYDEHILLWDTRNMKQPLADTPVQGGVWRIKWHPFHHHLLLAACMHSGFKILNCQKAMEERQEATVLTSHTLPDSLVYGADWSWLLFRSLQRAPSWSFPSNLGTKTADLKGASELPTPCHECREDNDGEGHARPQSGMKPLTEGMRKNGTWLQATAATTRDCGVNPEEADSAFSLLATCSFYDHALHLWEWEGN
UniProt Q7L8W6: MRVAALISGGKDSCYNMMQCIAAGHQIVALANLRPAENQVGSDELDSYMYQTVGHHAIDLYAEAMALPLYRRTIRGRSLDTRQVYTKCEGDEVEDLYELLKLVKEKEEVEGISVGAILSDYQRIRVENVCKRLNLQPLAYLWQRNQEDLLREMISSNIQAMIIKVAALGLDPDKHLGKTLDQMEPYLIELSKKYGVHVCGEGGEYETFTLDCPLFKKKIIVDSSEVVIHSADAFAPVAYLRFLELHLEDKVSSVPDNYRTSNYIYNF

What was measured:
Assay in all cases: log2 fold change, soluble protein after heating vs DMSO (PISA); higher = thermal stabilisation; K562 lysate, 10 uM; active = over 0.2 and 3.5 SD of the protein, either way, in both replicates (recomputed)
lapatinib = compound: CS(=O)(=O)CCNCc1ccc(-c2ccc3ncnc(Nc4ccc(OCc5cccc(F)c5)c(Cl)c4)c3c2)o1 [lapatinib]
How it was run: (§1)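 The values are log-two fold changes in thermal stability compared with solvent controls and come from duplicates. They were obtained by TMTpro 16plex LC-MS/MS, with channel sums equalised, on the supernatant after 21,000xg for 90 min. That supernatant came from crude K562 extract at 1 mg/mL protein treated with 10 μM compound for 30 min, heated for 3 min across 48°C-58°C, pooled and brought to 0.5% NP-40 at 4°C.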

pictilisib = compound: CS(=O)(=O)N1CCN(Cc2cc3nc(-c4cccc5[nH]ncc45)nc(N4CCOCC4)c3s2)CC1 [pictilisib]
How it was run: as §1

crizotinib = compound: C[C@@H](Oc1cc(-c2cnn(C3CCNCC3)c2)cnc1N)c1c(Cl)ccc(F)c1Cl [crizotinib]
How it was run: as §1

[1] = compound: C[C@H](C1=CC=C(C=C1)C(=O)NC2=C3C=CNC3=NC=C2)N
How it was run: as §1

duvelisib = compound: C[C@H](Nc1ncnc2nc[nH]c12)c1cc2cccc(Cl)c2c(=O)n1-c1ccccc1 [duvelisib]
How it was run: as §1

gandotinib = compound: Cc1cc(Nc2cc(CN3CCOCC3)c3nc(C)c(Cc4ccc(Cl)cc4F)n3n2)n[nH]1 [gandotinib]
How it was run: as §1

tozasertib = compound: Cc1cc(Nc2cc(N3CCN(C)CC3)nc(Sc3ccc(NC(=O)C4CC4)cc3)n2)n[nH]1 [tozasertib]
How it was run: as §1

doramapimod = compound: Cc1ccc(-n2nc(C(C)(C)C)cc2NC(=O)Nc2ccc(OCCN3CCOCC3)c3ccccc23)cc1 [doramapimod]
How it was run: as §1

bafetinib = compound: Cc1ccc(NC(=O)c2ccc(CN3CC[C@H](N(C)C)C3)c(C(F)(F)F)c2)cc1Nc1nccc(-c2cncnc2)n1 [bafetinib]
How it was run: as §1

[2] = compound: Cc1cccc(CC(=O)N2CCc3c2ccc(-c2cn(C)c4ncnc(N)c24)c3F)n1
How it was run: as §1

nilotinib = compound: Cc1cn(-c2cc(NC(=O)c3ccc(C)c(Nc4nccc(-c5cccnc5)n4)c3)cc(C(F)(F)F)c2)cn1 [nilotinib]
How it was run: as §1

[3] = compound: Cc1nc(Nc2n[nH]c3c2CN(C(=O)N[C@H](CN(C)C)c2ccccc2)C3(C)C)c2sccc2n1
How it was run: as §1

dasatinib = compound: Cc1nc(Nc2ncc(C(=O)Nc3c(C)cccc3Cl)s2)cc(N2CCN(CCO)CC2)n1 [dasatinib]
How it was run: as §1

[4] = compound: Cc1ncc(-c2ccnc(Nc3ccc(S(C)(=O)=O)cc3)n2)n1C(C)C
How it was run: as §1

[5] = compound: Cn1cc(-c2ccc3c(c2)CCN3C(=O)Cc2cccc(C(F)(F)F)c2)c2c(N)ncnc21
How it was run: as §1

quisinostat = compound: Cn1cc(CNCC2CCN(c3ncc(C(=O)NO)cn3)CC2)c2ccccc21 [quisinostat]
How it was run: as §1

tipifarnib = compound: Cn1cncc1[C@@](N)(c1ccc(Cl)cc1)c1ccc2c(c1)c(-c1cccc(Cl)c1)cc(=O)n2C [tipifarnib]
How it was run: as §1

[6] = compound: NC(=O)Nc1cc(-c2cccc(F)c2)sc1C(=O)N[C@H]1CCCNC1
How it was run: as §1

[7] = compound: NC(=O)c1cnc(N[C@@H]2CCCC[C@@H]2N)nc1Nc1cccc(-n2nccn2)c1
How it was run: as §1

[8] = compound: NC1(c2ccc(-c3nc4ccn5c(=O)[nH]nc5c4cc3-c3ccccc3)cc2)CCC1
How it was run: as §1

Measured: log2 fold change

DPP3 (UniProt Q9NY33)
inactive: lapatinib -0.008 | pictilisib -0.01 | crizotinib 0.025 | [1] 0.07 | duvelisib -0.011 | gandotinib -0.101 | tozasertib 0.008 | doramapimod -0.046 | bafetinib -0.032 | [2] -0.059 | nilotinib 0 | [3] 0 | dasatinib -0.016 | [4] 0 | [5] 0.023 | quisinostat 0.117 | tipifarnib -0.003 | [6] -0.006 | [7] -0.008 | [8] 0.005

ECHS1 (UniProt P30084)
inactive: lapatinib -0.02 | pictilisib -0.039 | crizotinib 0.025 | [1] 0 | duvelisib -0.002 | gandotinib 0.151 | tozasertib -0.001 | doramapimod -0.027 | bafetinib 0.037 | [2] -0.037 | nilotinib 0.006 | [3] -0.035 | dasatinib 0 | [4] 0.014 | [5] 0.028 | quisinostat 0.033 | tipifarnib 0.027 | [6] -0.017 | [7] -0.007 | [8] 0.03

DUSP9 (UniProt Q99956)
inactive: lapatinib -0.062 | pictilisib 0.067 | crizotinib -0.094 | [1] 0.067 | duvelisib -0.043 | gandotinib -0.06 | tozasertib 0.031 | doramapimod 0.051 | bafetinib -0.036 | [2] 0.083 | nilotinib -0.028 | [3] 0.012 | dasatinib -0.015 | [4] 0.043 | [5] 0.07 | quisinostat 0.005 | tipifarnib 0.017 | [6] 0.011 | [7] 0.014 | [8] -0.096

ECM1 isoform 4 (UniProt Q16610)
inactive: lapatinib -0.016 | pictilisib -0.001 | crizotinib -0.033 | [1] -0.024 | duvelisib 0.003 | gandotinib 0.006 | tozasertib 0.074 | doramapimod -0.049 | bafetinib 0.047 | [2] -0.035 | nilotinib -0.007 | [3] 0.008 | dasatinib -0.025 | [4] 0.034 | [5] -0.034 | quisinostat -0.007 | tipifarnib -0.015 | [6] -0.047 | [7] 0.007 | [8] -0.016

DUSP23 (UniProt Q9BVJ7)
inactive: lapatinib 0.058 | pictilisib 0.036 | crizotinib 0.005 | [1] 0.022 | duvelisib 0.019 | gandotinib 0.016 | tozasertib 0.023 | doramapimod 0.039 | bafetinib -0.014 | [2] 0.031 | nilotinib 0.015 | [3] 0.073 | dasatinib 0.049 | [4] 0.144 | [5] -0.002 | quisinostat 0.015 | tipifarnib 0.034 | [6] -0.029 | [7] -0.033 | [8] 0.045

EBAG9 isoform 2 (UniProt O00559)
inactive: lapatinib -0.081 | pictilisib 0.03 | crizotinib -0.021 | [1] -0.012 | duvelisib -0.159 | gandotinib 0.111 | tozasertib -0.03 | doramapimod 0.071 | bafetinib -0.023 | [2] -0.03 | nilotinib 0.016 | [3] 0.02 | dasatinib 0.073 | [4] -0.017 | [5] 0 | quisinostat 0.005 | tipifarnib -0.007 | [6] 0.148 | [7] -0.016 | [8] -0.063

DYNLL2 (UniProt Q96FJ2)
inactive: lapatinib -0.038 | pictilisib -0.026 | crizotinib -0.036 | [1] -0.04 | duvelisib 0.035 | gandotinib 0.014 | tozasertib -0.034 | doramapimod 0.031 | bafetinib 0.022 | [2] 0.02 | nilotinib 0.069 | [3] 0.037 | dasatinib -0.06 | [4] 0.092 | [5] 0.006 | quisinostat -0.003 | tipifarnib 0.033 | [6] -0.088 | [7] -0.016 | [8] 0.094

EHD4 (UniProt Q9H223)
inactive: lapatinib -0.022 | pictilisib -0.026 | crizotinib -0.029 | [1] -0.043 | duvelisib 0.019 | gandotinib -0.042 | tozasertib -0.008 | doramapimod 0.023 | bafetinib -0.031 | [2] 0.019 | nilotinib 0.023 | [3] 0.026 | dasatinib -0.065 | [4] 0 | [5] 0.145 | quisinostat -0.014 | tipifarnib -0.015 | [6] 0.03 | [7] 0.007 | [8] 0.049

ECSIT (UniProt Q9BQ95)
inactive: lapatinib -0.062 | pictilisib -0.044 | crizotinib -0.004 | [1] -0.016 | duvelisib -0.011 | gandotinib -0.049 | tozasertib -0.018 | doramapimod -0.042 | bafetinib 0.003 | [2] 0.013 | nilotinib -0.021 | [3] -0.004 | dasatinib 0.027 | [4] 0.069 | [5] -0.038 | quisinostat 0.011 | tipifarnib 0.022 | [6] -0.017 | [7] 0.041 | [8] -0.001

DRG1 (UniProt Q9Y295)
inactive: lapatinib -0.008 | pictilisib -0.002 | crizotinib 0.013 | [1] 0.013 | duvelisib 0.006 | gandotinib -0.019 | tozasertib -0.041 | doramapimod -0.04 | bafetinib 0.021 | [2] -0.027 | nilotinib 0.011 | [3] -0.021 | dasatinib -0.002 | [4] -0.002 | [5] 0.008 | quisinostat 0.023 | tipifarnib 0.029 | [6] -0.009 | [7] -0.004 | [8] -0.01

EIF1 (UniProt P41567)
inactive: lapatinib 0.053 | pictilisib 0.016 | crizotinib 0.002 | [1] -0.051 | duvelisib 0.044 | gandotinib 0.068 | tozasertib -0.008 | doramapimod -0.092 | bafetinib 0.052 | [2] 0.021 | nilotinib 0.126 | [3] 0.084 | dasatinib 0.001 | [4] 0.142 | [5] -0.03 | quisinostat 0.133 | tipifarnib 0 | [6] -0.018 | [7] -0.076 | [8] -0.032

DPY19L1, A0A1B0GW05
inactive: lapatinib -0.014 | pictilisib 0.069 | crizotinib -0.057 | [1] -0.03 | duvelisib -0.011 | gandotinib -0.044 | tozasertib -0.033 | doramapimod 0.012 | bafetinib -0.022 | [2] 0.019 | nilotinib 0.005 | [3] -0.076 | dasatinib 0.001 | [4] 0 | [5] -0.017 | quisinostat -0.027 | tipifarnib -0.034 | [6] 0.002 | [7] 0.014 | [8] 0.022

DTYMK (UniProt P23919)
inactive: lapatinib 0.026 | pictilisib -0.003 | crizotinib -0.042 | [1] 0.055 | duvelisib 0.023 | gandotinib -0.135 | tozasertib 0.01 | doramapimod 0.045 | bafetinib 0.007 | [2] -0.029 | nilotinib -0.003 | [3] 0.002 | dasatinib -0.072 | [4] -0.007 | [5] -0.025 | quisinostat -0.009 | tipifarnib 0.017 | [6] 0.045 | [7] -0.024 | [8] -0.007

DYNC1LI2 (UniProt O43237)
inactive: lapatinib -0.027 | pictilisib 0.02 | crizotinib -0.123 | [1] -0.022 | duvelisib 0.074 | gandotinib -0.017 | tozasertib -0.048 | doramapimod 0.059 | bafetinib -0.043 | [2] 0.019 | nilotinib -0.022 | [3] 0.074 | dasatinib -0.011 | [4] 0.057 | [5] 0.005 | quisinostat -0.198 | tipifarnib -0.009 | [6] 0.034 | [7] 0.016 | [8] -0.011

DPH7 (UniProt Q9BTV6)
inactive: lapatinib -0.005 | pictilisib -0.006 | crizotinib -0.009 | [1] 0.007 | duvelisib 0.003 | gandotinib 0.084 | tozasertib -0.007 | doramapimod 0 | bafetinib -0.042 | [2] -0.008 | nilotinib 0.003 | [3] 0.015 | dasatinib 0.008 | [4] 0.024 | [5] -0.02 | quisinostat -0.099 | tipifarnib 0.013 | [6] -0.027 | [7] 0.023 | [8] 0.017

DPH6 (UniProt Q7L8W6)
inactive: lapatinib -0.014 | pictilisib 0.014 | crizotinib 0.014 | [1] -0.06 | duvelisib 0.008 | gandotinib 0.019 | tozasertib 0.041 | doramapimod 0.015 | bafetinib 0.054 | [2] 0.014 | nilotinib -0.032 | [3] 0.008 | dasatinib 0.006 | [4] -0.014 | [5] 0.022 | quisinostat 0.045 | tipifarnib 0.014 | [6] 0.018 | [7] 0.034 | [8] 0.018

Three neighbouring records from above, for reference:
ECM1 isoform 4 (UniProt Q16610)
inactive: lapatinib -0.016 | pictilisib -0.001 | crizotinib -0.033 | [1] -0.024 | duvelisib 0.003 | gandotinib 0.006 | tozasertib 0.074 | doramapimod -0.049 | bafetinib 0.047 | [2] -0.035 | nilotinib -0.007 | [3] 0.008 | dasatinib -0.025 | [4] 0.034 | [5] -0.034 | quisinostat -0.007 | tipifarnib -0.015 | [6] -0.047 | [7] 0.007 | [8] -0.016

DUSP23 (UniProt Q9BVJ7)
inactive: lapatinib 0.058 | pictilisib 0.036 | crizotinib 0.005 | [1] 0.022 | duvelisib 0.019 | gandotinib 0.016 | tozasertib 0.023 | doramapimod 0.039 | bafetinib -0.014 | [2] 0.031 | nilotinib 0.015 | [3] 0.073 | dasatinib 0.049 | [4] 0.144 | [5] -0.002 | quisinostat 0.015 | tipifarnib 0.034 | [6] -0.029 | [7] -0.033 | [8] 0.045

EBAG9 isoform 2 (UniProt O00559)
inactive: lapatinib -0.081 | pictilisib 0.03 | crizotinib -0.021 | [1] -0.012 | duvelisib -0.159 | gandotinib 0.111 | tozasertib -0.03 | doramapimod 0.071 | bafetinib -0.023 | [2] -0.03 | nilotinib 0.016 | [3] 0.02 | dasatinib 0.073 | [4] -0.017 | [5] 0 | quisinostat 0.005 | tipifarnib -0.007 | [6] 0.148 | [7] -0.016 | [8] -0.063
